We go through two molecules from publication PMC11233548, “Identification of an H-Ras nanocluster disrupting peptide” (Communications Biology, 2024).

No constants are given. Whether binding was seen depends on the method and setting. In cells and extracts the contact can be indirect. Some results given as binding are weak or reduced against the parent protein; the word gives no strength.

The target of the experiment is T1, L5UR-SNAP (UniProt P15814).
T1 sequence: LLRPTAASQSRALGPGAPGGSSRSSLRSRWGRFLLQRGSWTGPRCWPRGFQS
Put plainly: pull-down; HEK293-EBNA cells co-transfected with hGal1 and L5UR-SNAP, mutL5UR-SNAP or SNAP; cleared lysate with SNAP-capture magnetic beads 2 h at room temperature; washes with 150 mM NaCl, 0.5% NP-40; immunoblot. (In general: Immunoblotting shows a protein as a band on a membrane.)

B1: RASSF7 (HEK lysate) (protein, UniProt Q02833 1-373)
chain: MLLGLAAMELKVWVDGIQRVVCGVSEQTTCQEVVIALAQAIGQTGRFVLVQRLREKERQLLPQECPVGAQATCGQFASDVQFVLRRTGPSLAGRPSSDSCPPPERCLIRASLPVKPRAALGCEPRKTLTPEPAPSLSRPGPAAPVTPTPGCCTDLRGLELRVQRNAEELGHEAFWEQELRREQAREREGQARLQALSAATAEHAARLQALDAQARALEAELQLAAEAPGPPSPMASATERLHQDLAVQERQSAEVQGSLALVSRALEAAERALQAQAQELEELNRELRQCNLQQFIQQTGAALPPPPRPDRGPPGTQGPLPPAREESLLGAPSESHAGAQPRPRGGPHDAELLEVAAAPAPEWCPLAAQPQAL
On to B1, for which the binding result is reported as “binds”.

B2: ASPP2 (HEK lysate) (protein, UniProt Q13625 1-1128)
chain: MMPMFLTVYLSNNEQHFTEVPVTPETICRDVVDLCKEPGESDCHLAEVWCGSERPVADNERMFDVLQRFGSQRNEVRFFLRHERPPGRDIVSGPRSQDPSLKRNGVKVPGEYRRKENGVNSPRMDLTLAELQEMASRQQQQIEAQQQLLATKEQRLKFLKQQDQRQQQQVAEQEKLKRLKEIAENQEAKLKKVRALKGHVEQKRLSNGKLVEEIEQMNNLFQQKQRELVLAVSKVEELTRQLEMLKNGRIDSHHDNQSAVAELDRLYKELQLRNKLNQEQNAKLQQQRECLNKRNSEVAVMDKRVNELRDRLWKKKAALQQKENLPVSSDGNLPQQAASAPSRVAAVGPYIQSSTMPRMPSRPELLVKPALPDGSLVIQASEGPMKIQTLPNMRSGAASQTKGSKIHPVGPDWSPSNADLFPSQGSASVPQSTGNALDQVDDGEVPLREKEKKVRPFSMFDAVDQSNAPPSFGTLRKNQSSEDILRDAQVANKNVAKVPPPVPTKPKQINLPYFGQTNQPPSDIKPDGSSQQLSTVVPSMGTKPKPAGQQPRVLLSPSIPSVGQDQTLSPGSKQESPPAAAVRPFTPQPSKDTLLPPFRKPQTVAASSIYSMYTQQQAPGKNFQQAVQSALTKTHTRGPHFSSVYGKPVIAAAQNQQQHPENIYSNSQGKPGSPEPETEPVSSVQENHENERIPRPLSPTKLLPFLSNPYRNQSDADLEALRKKLSNAPRPLKKRSSITEPEGPNGPNIQKLLYQRTTIAAMETISVPSYPSKSASVTASSESPVEIQNPYLHVEPEKEVVSLVPESLSPEDVGNASTENSDMPAPSPGLDYEPEGVPDNSPNLQNNPEEPNPEAPHVLDVYLEEYPPYPPPPYPSGEPEGPGEDSVSMRPPEITGQVSLPPGKRTNLRKTGSERIAHGMRVKFNPLALLLDSSLEGEFDLVQRIIYEVDDPSLPNDEGITALHNAVCAGHTEIVKFLVQFGVNVNAADSDGWTPLHCAASCNNVQVCKFLVESGAAVFAMTYSDMQTAADKCEEMEEGYTQCSQFLYGVQEKMGIMNKGVIYALWDYEPQNDDELPMKEGDCMTIIHREDEDEIEWWWARLNDKEGYVPRNLLGLYPRIKPRQRSLA
As for B2, the binding entry was “binds”.
